The whole screen tested about 340,000 compounds, of which about 170 (0.05%) were called active. The inconclusive results got no clear call from the source; some entries with a clear call stand among them for comparison. Calls come from the whole dose curve; as a rule, active = well fitted inhibition curve with a large enough effect in the signal ratio, with a control signal flat (not every such curve was filed as active); inconclusive = small, poorly fitted or top-dose-only effect, or effect the other way, or a change in a side signal; inactive = flat fitted curve, though single readings scatter; the % refers to the signal ratio. Where the call is inconclusive, the potency comes from a doubtful curve fit.
Experiment: qHTS Assay to Find Inhibitors of Chronic Active B-Cell Receptor Signaling;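 for activity change, negative = inhibition: plate controls were basal doxycycline-induced cells for no effect and cells given 10 µM MG132 for full effect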
Settings: ABC-DLBCL IkBa-CBG/CBR reporter, luminescence ratio (green luciferase fused to IkBa over red control in TMD8 lymphoma cells), 4 h; activity change, negative = inhibition: at 46.1 µM (top of the series)
In short: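 Concentration-response series (up to 46 uM) were applied to TMD8 dual-reporter cells for 4 h at 37C with doxycycline. Green/red ratio, after filter-overlap correction, defined %Activity; red signal alone was normalised to basal cells and zero luminescence.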
Potency is the fitted concentration of half-maximal effect.

Structure (SMILES) | activity change, negative = inhibition | Potency
O=C(NC(=S)Nc1ccccc1N1CCCCC1)c1ccco1 | inconclusive: 14.9% | –
COc1ccccc1CNC(=O)[C@H](C)NC(=O)C1CCN(C(=O)[C@@H](N)C(C)C)CC1 | inactive: -0.21% | –
COc1cc(C(=O)N(C)CCOc2ccccc2)ccc1OCC(=O)Nc1cccc(C(F)(F)F)c1 | inactive: -19.9% | –
O=C(Nc1ccc(Cl)cc1)N1CCCC1 | inconclusive: 5.24% | –
CCN(CCCNC(=O)CNC(=O)c1nn(-c2ccc(OC)c(OC)c2)c(=O)c2ccccc12)c1ccccc1 | inconclusive: 13.6% | –
O=C(Nc1nc2cc3c(cc2s1)OCCO3)c1cccc(S(=O)(=O)N2CCOCC2)c1 | inconclusive: 2.43% | –
CCOC(=O)/C(C#N)=C\C1=C(N2CCOCC2)CC(C)(C)OC1 | inconclusive: -8.69% | –
O=C(Nc1ccc2ccccc2n1)c1ccccc1Cl | – | inconclusive: 14.1 µM [falling, partial curve]
Cc1cc(C)c2cc(CN(CCO)C(c3nnnn3Cc3ccc(F)cc3)C(C)C)c(=O)[nH]c2c1 (centres undefined) | inconclusive: -7.36% | –
O=[N+]([O-])c1ccccc1-c1nc(-c2ccc(Br)o2)no1 | inconclusive: 1.64% | –
NNC(=O)Cn1c(-c2ccccc2)cc(=O)n2ncnc12 | inactive: 4.24% | –
O=C1/C(=C/N(C(=O)c2ccco2)c2ccc(Br)cc2)Sc2ccccc21 | inconclusive: -22.8% | –
CCN(CC)S(=O)(=O)c1ccc(C(=O)NC(=S)N(CCC#N)Cc2cccnc2)cc1 | inactive: 0.11% | –
COc1ccc(/C=N/n2cnnc2SCCO)cc1OC | inconclusive: -10.3% | –
CCc1nccn1C(=O)c1cnn2c(C(F)F)cc(-c3ccc(C)cc3)nc12 | inactive: 1.38% | –
O=Nc1c(O)n(Cc2ccc(Cl)cc2Cl)c2ccccc12 | inconclusive: 1.12% | –
NC(=O)CC1C(=O)N(c2ccccc2)C(=S)N1NC(=O)c1ccc(Br)cc1 (centres undefined) | – | inconclusive: 31.6 µM [rising, single point]
CN1CCN(S(=O)(=O)c2ccc(NC(=S)NC(=O)c3ccc(Cl)cc3)cc2)CC1 | inactive: -6.2% | –
COc1cc(-c2noc(C)c2/C=C/c2ccc(OC(C)=O)cc2)cc(OC)c1OC | – | inconclusive: 2.82 µM [falling, full curve]
CCS(=O)(=O)N1Cc2ccccc2CC1C(=O)N1CCN(c2ccccc2)CC1 (centres undefined) | inconclusive: 4.96% | –
CC(C)(C)C(=O)[C@@H]1[C@@H]2C(=O)N(Cc3ccccc3)C(=O)[C@@H]2[C@H]2c3ccccc3C=CN12 | – | inconclusive: 16.4 µM [falling, partial curve]

Part of the list above, in markdown:

| Structure (SMILES) | activity change, negative = inhibition | Potency |
| --- | --- | --- |
| O=C(NC(=S)Nc1ccccc1N1CCCCC1)c1ccco1 | inconclusive: 14.9% | – |
| CCOC(=O)/C(C#N)=C\C1=C(N2CCOCC2)CC(C)(C)OC1 | inconclusive: -8.69% | – |
| O=C(Nc1ccc2ccccc2n1)c1ccccc1Cl | – | inconclusive: 14.1 µM [falling, partial curve] |
| Cc1cc(C)c2cc(CN(CCO)C(c3nnnn3Cc3ccc(F)cc3)C(C)C)c(=O)[nH]c2c1 (centres undefined) | inconclusive: -7.36% | – |
| COc1ccc(/C=N/n2cnnc2SCCO)cc1OC | inconclusive: -10.3% | – |
| CN1CCN(S(=O)(=O)c2ccc(NC(=S)NC(=O)c3ccc(Cl)cc3)cc2)CC1 | inactive: -6.2% | – |

Continued:

Structure (SMILES) | activity change, negative = inhibition | Potency
Cc1cccc(C(=O)NC(=S)NNC(=O)c2cccs2)c1 | – | inconclusive: 32.6 µM [falling, partial curve, poor fit]
COc1cc(C2=NOC(C(=O)NCc3ccco3)C2)cc(OC)c1OC (centres undefined) | – | inconclusive: 7.08 µM [falling, partial curve, poor fit]
CCc1cccc(OCCCCNCCCOC)c1 | inactive: 3.43% | –
CSc1ccccc1NC(=O)c1ccccc1 | inactive: 7.69% | –
Cc1cc(C(=O)COc2ccccc2C(N)=O)c(C)n1CC1CCCO1 (centres undefined) | inactive: 0.0849% | –
CC(C(=O)Nc1cccnc1)N1C(=O)c2ccccc2C1=O (centres undefined) | inactive: 2.11% | –
O=C(COC(=O)c1cnccn1)Nc1ccc(Cl)cc1C(F)(F)F | inconclusive: 0.678% | –
O=C(CN(c1ccc2c(c1)OCCO2)S(=O)(=O)c1ccccc1)NCc1ccc(Cl)cc1 | inconclusive: 0.358% | –
CCN(c1ccccc1)S(=O)(=O)c1ccc(C(=O)N2CCN(c3ccccc3)CC2)cc1 | inactive: 2.23% | –
CC1CCN(c2c(NCC3CCC(C(=O)NCCC4=CCCCC4)CC3)c(=O)c2=O)CC1 (centres undefined) | inconclusive: 3.39% | –
C=CCn1c(N)c(C(=O)NCC2CCCO2)c2nc3ccccc3nc21 (centres undefined) | inconclusive: -5.97% | –
Cc1cccnc1NC(=O)CSc1ccc2c(c1)OCCO2 | inconclusive: -14.4% | –
CCC(=O)NC1=C(NC(C)c2ccccc2)C(=O)c2ccccc2C1=O (centres undefined) | inconclusive: 14.8% | –
Cn1c(=O)[nH]c(=O)c2c1nc(NCc1ccco1)n2CCCc1ccccc1 | – | inconclusive: 1.41 µM [falling, full curve, poor fit]
CC1(C)CC(=O)c2cnc(NC(=O)C3CCCC3)nc2C1 | – | inconclusive: 0.631 µM [rising, partial curve, poor fit]
c1ccc2nc3c(cc2c1)CCCCC3 | inactive: -14.4% | –
C/C(=N\NC(=O)C(C)Sc1ccccc1)c1ccc([N+](=O)[O-])cc1 (centres undefined) | inconclusive: -0.873% | –
CC(=O)O[C@H]1CC[C@]2(C)[C@H]3CC=C4[C@@H]5[C@@H](C)[C@H](C)CC[C@]5(C(=O)O)CC[C@@]4(C)[C@]3(C)CC[C@H]2C1(C)C | inconclusive: 1.76% | –
Cc1ccc(CNC(=O)COc2ccc(S(=O)(=O)N3CCOCC3)cc2)cc1 | inconclusive: 2.99% | –
C=CCc1ccc(OCCOc2cccc3cccnc23)c(OC)c1 | inactive: -14.2% | –
COc1cccc(NC(=O)c2cnc(SCC(=O)NCc3ccc4c(c3)OCO4)n(C)c2=O)c1 | – | inconclusive: 10.3 µM [falling, partial curve]

Structure (SMILES) | activity change, negative = inhibition | Potency
COc1ccc(-c2noc(C3CCCN(C(=O)Nc4ccccc4)C3)n2)cc1 (centres undefined) | inconclusive: -7.24% | –
CCn1cc(CN2CCCC(CNC(=O)COc3ccccc3OC)C2)c(C)n1 (centres undefined) | inconclusive: -11.3% | –
CN(C(=O)COC(=O)COc1ccc2c(c1)CCC2)c1c(N)n(Cc2ccccc2)c(=O)[nH]c1=O | inactive: -3.41% | –
COc1ccccc1CNC(=O)COC(=O)c1cc(-c2ccco2)nc2ccccc12 | inconclusive: 27.4% | –
O=C(Cn1ncc(Cl)c(Cl)c1=O)NC1CCS(=O)(=O)C1 (centres undefined) | inactive: 9.14% | –
CCOC(=O)c1c(-c2ccc(F)cc2)cn2ccccc12 | inactive: 10.5% | –
O=C(NCC(=O)N1CCCCC1)c1sc2ccccc2c1Cl | – | inconclusive: 23.1 µM [falling, single point]
c1ccc(COc2ccccc2CNC23CC4CC(CC(C4)C2)C3)cc1 | inconclusive: 3.21% | –
O=C(c1ccc(F)cc1)N(c1ccccn1)C1CCCCC1 | inactive: 2.04% | –
Cc1ccccc1CNc1nc(N)n(-c2ccccc2)n1 | – | inconclusive: 17.8 µM [falling, single point]
c1ccc2[nH]c(CN3CCCCCC3)nc2c1 | – | inconclusive: 23.1 µM [falling, single point]
CCn1cc(C(=O)NCCCOC(C)C)c(=O)c2cc(S(=O)(=O)N3CCC(C)CC3)ccc21 | inactive: -0.313% | –
CCCN(CCC)Cc1c(C(=O)N/N=C/C(C)=C\c2ccco2)nnn1-c1nonc1N | inconclusive: 26.6% | –
O=C(Cn1nc2n(c1=O)-c1ccccc1SC2)N/N=C/c1cccnc1 | inconclusive: 6.68% | –
CSc1ccc(Cc2ccc(Cl)cc2Cl)nn1 | inactive: 4.11% | –
CCOCCCN(C)C1CCN(C(=O)c2oc3ccccc3c2NC(=O)c2ccc([N+](=O)[O-])cc2)CC1 | inconclusive: 2.27% | –
CC(=O)Nc1cccc2c1Cc1ccccc1-2 | inconclusive: 1.41% | –
S=c1[nH]nc(Nc2cccc(Cl)c2)s1 | inconclusive: 6.58% | –
O=C1CC(c2ccccc2)CC(O)=C1C=NCCN1CCN(Cc2ccccc2)CC1 (centres undefined) | inconclusive: -6.11% | –
O=C1CCNc2c(Cl)cccc21 | – | inconclusive: 35.5 µM [falling, single point]
Cc1sc2ncnc(NCC(O)c3ccc([N+](=O)[O-])cc3)c2c1C (centres undefined) | inactive: -9.45% | –

Structure (SMILES) | activity change, negative = inhibition | Potency
CCC(=O)NC(c1ccc(C)cc1)c1cc(Cl)c2cccnc2c1O (centres undefined) | inactive: -7.06% | –
O=C(c1ccccc1)c1nn(-c2ccccc2)c(=O)cc1C(F)(F)F | inactive: 1.15% | –
C/C(=N\NC(=O)COc1ccc(C(C)(C)C)cc1)c1ccc(N2CCOCC2)cc1 | – | inconclusive: 32.6 µM [falling, partial curve, poor fit]
CCc1ccc2oc(C(=O)NCc3ccncc3)c(C)c2c1 | inactive: -16.6% | –
CCOC(=O)c1c(NC(=O)CN2C(=O)C(=O)N(C(C)C)C2=O)sc(C)c1CC | inactive: 7.37% | –
Clc1ccccc1CSc1ncccn1 | inconclusive: 3.31% | –
O=C(Nc1ccc(Cl)cc1Cl)c1ccc2ncsc2c1 | inconclusive: 5.03% | –
O=C(CSc1nnnn1-c1ccc(F)cc1)c1ccc(O)c(O)c1 | inactive: -1.33% | –
CCCCCCc1nnc(NC(=O)OCC)s1 | inconclusive: -1.47% | –
Cc1nnc2ccc(-c3ccc(NC(=O)c4ccco4)cc3)nn12 | – | inconclusive: 35.5 µM [falling, single point]
COc1cccc(C(=O)C2CCCN(Cc3cccc(OCCO)c3)C2)c1 (centres undefined) | inactive: -3.53% | –
COc1ccc2c(c1)[nH]c1c(=O)n(Cc3ccccn3)cnc12 | inconclusive: 25.8% | –
C/C(CC(=O)Nc1cccc(F)c1)=N\NC(=O)c1ccncc1 | – | inconclusive: 11.2 µM [falling, partial curve]
O=C(Cc1cccs1)Nc1ccccc1C(=O)O | – | inconclusive: 29.1 µM [falling, single point]
CCN(CC(=O)Nc1ccc(N2CCOCC2)cc1)C(=O)c1ccc(C#N)cc1 | inactive: 5.28% | –
CCN1CCN(c2ccc(S(=O)(=O)N3CCCCC3)cc2NC(=O)CC(NC(C)=O)c2ccccc2)CC1 (centres undefined) | inactive: 0.457% | –
Cc1cc(C(=O)O)ccc1-c1ccc(/C=N/n2cnnc2)o1 | – | inconclusive: 22.4 µM [falling, single point]
COc1ccc(/C(O)=C2/C(=O)C(=O)N(c3ccccn3)C2c2ccc(OC)cc2)cc1 (centres undefined) | inconclusive: 0.68% | –
CC1CCCCN1CCCNC(=O)c1ccc(N2CCCC2=O)cc1 (centres undefined) | – | inconclusive: 0.631 µM [falling, full curve, poor fit]
S=C(N/N=C/c1ccccc1)N1CCOCC1 | inactive: 3.31% | –
CC(=O)Nc1ncc(N=Nc2cccc(C(F)(F)F)c2)s1 | inactive: -4.83% | –

Source: PubChem BioAssay AID493014 (National Center for Advancing Translational Sciences (NCATS), 2011)
